From PubChem BioAssay AID504648 (National Center for Advancing Translational Sciences (NCATS), 2011)
Among all 390,000 compounds or so, about 610 (0.16%) were called active. This list was built around the results that the source calls inconclusive (neither active nor inactive); the mix of calls is not that of the screen. Calls come from the whole dose curve; as a rule, active = well fitted inhibition curve with a large enough effect; inconclusive = small, poorly fitted or top-dose-only effect, or effect the other way, or another doubt; inactive = no such curve, though single readings can be large or run the other way. Potencies beside an inconclusive call are fits to weak or partial responses and may not hold up.

test: Nrf2 qHTS screen for inhibitors: counterscreen for cytotoxicity; details: A549 ARE-Fluc cells, CellTiter-Fluor viability, 18-24 h; activity change, negative = cytotoxicity: at 46 µM (top of the series)
Procedure, shortened: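 A549 ARE-Fluc cells in 5% FBS OPTI-MEM, 5000 cells/well, rested 2 h then exposed to compounds in concentration-response for 18-24 h at 37 °C. Viability by CellTiter-Fluor fluorescence (Ex 405/Em 525) after 30 min; luciferase luminescence (BugLite, 15 min, RT) read afterwards.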
% is set by controls: 0 for no effect and ±100 for the full control effect; potency is the fitted concentration of half-maximal effect.

Question: For `COc1ccccc1/C=C1\C(=O)Nc2ccccc21`, which Potency is on record?
Answer: The Potency was inconclusive: 18.4 µM [falling, partial curve, poor fit].

Question: With `COCCN(Cc1ccccc1)C(=O)c1cc(-c2ccc(OC)c(OC)c2)nc2ccccc12` as the compound, how does the Potency read?
Answer: Its Potency is inconclusive: 18.4 µM [falling, single point].

Question: With `COc1cc(O)oc1C=Nc1ccc(Cl)cc1` as the compound, how does the “activity change, negative = cytotoxicity” value read?
Answer: Its value is inactive: -5.94%.

Question: With `CCn1c2ccccc2c2cc(NC(=O)COC(=O)c3cc(OC)c(OC)cc3OC)ccc21` as the compound, how does the “activity change, negative = cytotoxicity” value read?
Answer: Its value is inactive: -6.44%.

Question: For `O=C(CSc1nnc(-c2ccccc2F)o1)Nc1cccc(C(F)(F)F)c1`, which “activity change, negative = cytotoxicity” value is on record?
Answer: The value was inactive: 0.119%.

Question: With `COc1ccc(Nc2nc(-c3cccs3)nc3ccccc23)c(OC)c1` as the compound, how does the “activity change, negative = cytotoxicity” value read?
Answer: The value was inactive: -2.78%.

Question: Which Potency does the source give for `CCc1c(C)c2cc(Cl)c(O)c(CN(CC)CC)c2oc1=O` here?
Answer: Its Potency is inconclusive: 14.6 µM [activator, partial curve].

Question: With `CC(=O)c1ccc(N=Nc2c(C)[nH]n(-c3ccccc3)c2=O)cc1` as the compound, how does the Potency read?
Answer: Its Potency is inconclusive: 29.1 µM [falling, single point].

Question: For `Cc1cc(S(=O)(=O)N2CCN(c3ccccn3)CC2)c(C)cc1Cl`, which Potency is on record?
Answer: The Potency was inconclusive: 29.1 µM [activator, single point].

Question: With `CN(C)S(=O)(=O)N1CCN(S(=O)(=O)c2ccc(F)cc2)CC1` as the compound, how does the activity change, negative = cytotoxicity read?
Answer: Its activity change, negative = cytotoxicity is inactive: -17.1% [at 1.84 µM].

Question: With `COc1cccc(CN(C)C(=O)c2cc(S(=O)(=O)NCc3ccccc3)ccc2C)c1OC` as the compound, how does the “activity change, negative = cytotoxicity” value read?
Answer: The value was inactive: -3.33%.

Question: Which “activity change, negative = cytotoxicity” value does the source give for `Cc1ccc(-c2cn3c(=S)[nH]nc3s2)cc1` here?
Answer: The value was inactive: -6.55%.

Question: Which Potency does the source give for `CC(=O)c1ccc(NS(=O)(=O)c2ccc(-c3cnc(C4CC4)o3)cc2)cc1` here?
Answer: The Potency was “inactive”.

Question: With `COc1cccc(-n2c(SCC(=O)Nc3nnc(C)s3)nc3c([nH]c4ccccc43)c2=O)c1` as the compound, how does the Potency read?
Answer: The Potency was inconclusive: 23.1 µM [falling, single point].

Question: Which Potency does the source give for `O=C(c1cc(-c2ccncc2)nc2ccccc12)N1CCN(c2ccccn2)CC1` here?
Answer: The Potency was inconclusive: 0.146 µM [falling, full curve, poor fit].

Question: For `COc1ccc(-c2cn(-c3ccc(C)c(Cl)c3)c(=S)[nH]2)cc1OC`, which Potency is on record?
Answer: The Potency was inconclusive: 6.51 µM [falling, partial curve, poor fit].

Question: For `O=C(COc1ccc2c(c1)OCO2)Nc1nncs1`, which “activity change, negative = cytotoxicity” value is on record?
Answer: The value was inactive: 1.09%.

Question: With `Cc1ccc(Cn2cc(C(=O)c3ccc4c(c3)OCO4)c(=O)c3cc(C)ccc32)cc1` as the compound, how does the Potency read?
Answer: The Potency was inconclusive: 20.6 µM [falling, partial curve, poor fit].

Question: For `O=C(CSc1nc2ccccc2c(=O)n1-c1ccc(F)cc1)NCc1ccco1`, which Potency is on record?
Answer: The Potency was inconclusive: 18.4 µM [falling, partial curve, poor fit].

Question: With `Cc1sc2ncnc(N3CCN(S(=O)(=O)c4ccc(Br)cc4)CC3)c2c1C` as the compound, how does the “activity change, negative = cytotoxicity” value read?
Answer: The value was inactive: -7.15%.

Question: Which “activity change, negative = cytotoxicity” value does the source give for `O=C(Nc1cccc(C(F)(F)F)c1)c1cc2nc(-c3ccc4c(c3)OCO4)cc(C(F)(F)F)n2n1` here?
Answer: The value was inactive: -4.42%.

Question: For `CC(Oc1ccc(-c2ccccc2)cc1)C(=O)N1CCOCC1` (centres undefined), which “activity change, negative = cytotoxicity” value is on record?
Answer: The value was inactive: -6.11%.

Question: With `CC(=O)c1ccc(Nc2ccc([N+](=O)[O-])c3nonc23)cc1` as the compound, how does the Potency read?
Answer: Its Potency is inconclusive: 23.1 µM [falling, partial curve, poor fit].

Question: Which Potency does the source give for `COc1ccc(-c2nnc(NC(=O)c3ccc([N+](=O)[O-])o3)o2)c(OC)c1` here?
Answer: The Potency was inconclusive: 29.1 µM [falling, single point].

Question: With `Cc1ccc(Cl)cc1N1CCN(C(=O)C2CCCN(S(=O)(=O)c3cnc[nH]3)C2)CC1` (centres undefined) as the compound, how does the Potency read?
Answer: Its Potency is inconclusive: 0.0041 µM [activator, full curve, poor fit].

Question: For `CC1Cc2ccccc2N1C(=O)CCS(=O)(=O)c1ccc2c(c1)NC(=O)CS2` (centres undefined), which “activity change, negative = cytotoxicity” value is on record?
Answer: The value was inactive: -2.41%.

Question: For `CC[C@]1(O)C[C@@H]2CN(CCc3c([nH]c4ccccc34)[C@@](C(=O)OC)(c3cc4c(cc3OC)N(C)[C@H]3[C@@](O)(C(=O)OC)[C@H](OC(C)=O)[C@]5(CC)C=CCN6CC[C@]43[C@@H]65)C2)C1`, which Potency is on record?
Answer: The Potency was inconclusive: 5.8 µM [falling, partial curve, poor fit].

Question: With `O=C(NNC(=S)NC1CCCCC1)c1cccs1` as the compound, how does the “activity change, negative = cytotoxicity” value read?
Answer: The value was inactive: 4.15%.

Question: For `CC1=NN(c2ccccc2C(=O)O)C(=O)C1N=Nc1ccccc1` (centres undefined), which Potency is on record?
Answer: Its Potency is inconclusive: 16.4 µM [falling, single point].

Question: Which Potency does the source give for `COC(=O)c1cc(Sc2c(Cl)cccc2Cl)ccn1` here?
Answer: Its Potency is inconclusive: 29.1 µM [falling, single point].

Question: Which Potency does the source give for `CCOc1cc(/C=N/O)cc(Br)c1OCc1ccc(Cl)cc1` here?
Answer: Its Potency is inconclusive: 20.6 µM [falling, partial curve, poor fit].

Question: With `CC(Nc1cc(N2CCN(C(=O)C(C)(C)C)CC2)ccc1[N+](=O)[O-])c1ccccc1` (centres undefined) as the compound, how does the Potency read?
Answer: The Potency was inconclusive: 23.1 µM [falling, single point].

Question: With `Cc1ccccc1NC(=O)Cc1nc(COC(=O)c2ccc(Cl)c(S(N)(=O)=O)c2)cs1` as the compound, how does the “activity change, negative = cytotoxicity” value read?
Answer: The value was inactive: -0.236%.

Question: Which Potency does the source give for `CC(C)C(=O)N1CCN(c2ccc(NC(=O)c3ccc([N+](=O)[O-])o3)cc2)CC1` here?
Answer: The Potency was inconclusive: 18.4 µM [falling, partial curve].

Question: With `COCCNC(=O)/C(C#N)=C1\N=C(N)c2ccccc21` as the compound, how does the “activity change, negative = cytotoxicity” value read?
Answer: The value was inactive: -17%.

Question: With `Cc1ccc(N2CCN(C(=O)c3cnn(-c4ccc(F)cc4F)c3C3CCN(C(=O)OC(C)(C)C)CC3)CC2)c(C)c1` as the compound, how does the Potency read?
Answer: Its Potency is inconclusive: 16.4 µM [falling, partial curve, poor fit].

Question: With `COc1cc(OC)c(N(C)C(=O)c2cn(C3CCCC3)c(=O)c3c2c2ccccc2n3C)cc1Cl` as the compound, how does the Potency read?
Answer: The Potency was inconclusive: 25.9 µM [falling, partial curve, poor fit].

Question: For `Cc1ccc(-n2ncc3c2CCCC3NC(=O)c2ccccc2N2CCOCC2)cc1C` (centres undefined), which Potency is on record?
Answer: The Potency was inconclusive: 11.6 µM [falling, partial curve, poor fit].

Question: For `CC(C)c1ccc(/C=N/n2cnnc2)cc1`, which “activity change, negative = cytotoxicity” value is on record?
Answer: The value was inactive: -3.34%.

Question: For `N=c1c2c(ccn1CCCc1ccccc1)Oc1ccc3ccccc3c1C2c1ccccc1` (centres undefined), which Potency is on record?
Answer: Its Potency is active: 14.6 µM.

Question: Which “activity change, negative = cytotoxicity” value does the source give for `COc1ccc(CCC(=O)NCc2nc3cccnc3n2Cc2ccc(F)cc2)cc1` here?
Answer: Its value is inactive: 7.67%.

Question: Which Potency does the source give for `CC(=O)c1ccc(NC(=O)COc2ccccc2C(=O)Nc2ccccc2)cc1` here?
Answer: Its Potency is inconclusive: 20.6 µM [falling, partial curve, poor fit].

Question: With `COc1ccc(S(=O)(=O)N2CCCCC2)cc1NC(=O)c1ccc(N2CCCC2=O)cc1` as the compound, how does the “activity change, negative = cytotoxicity” value read?
Answer: The value was inactive: 0.465%.

Question: With `COc1ccc(CNC(=O)c2cc(=O)[nH]c3ccc(S(=O)(=O)N4CCCC4)cc23)c(OC)c1` as the compound, how does the “activity change, negative = cytotoxicity” value read?
Answer: The value was inactive: 4.64%.
